# Data published in the supplement of paper PMC5949888.
# Most values lie at the floor of the assay. Slopes are relative: functional sequences can read slightly below zero.
# Test system: Saccharomyces cerevisiae PS128 hsf1 delta, HSF1(1-493) fusion
# Assay: growth estimate (transactivation domain function in HSF1 fusion, heat-shock survival) (a.u. (slope of normalised read count over time)); higher = stronger growth at 37°C, i.e. more transactivation activity
# Details: library: random library
row,Substance,growth estimate
1,TICVGWLAAHCV,< -0.25
2,PQAVRQRGQGCAPRGYAARL,< -0.25
3,NFAIAHS,< -0.25
4,VVLYKRTFWSPPLAGLNSGT,< -0.25
5,KAVSDPNMALTVVMPSYGR,< -0.25
6,DLILLQISNLYR,< -0.25
7,AYSDVPFRRHQFSIRSYGCK,< -0.25
8,SPLRENELTKRMRLPQFWVF,< -0.25
9,RFWQMCHS,< -0.25
10,ISIHVESRCDRILSQAIFTS,< -0.25
11,LTIEL,< -0.25
12,NGRRESPLKDLGKVAKDQSV,< -0.25
13,FGGKAAWEVSDVTSTLECLL,< -0.25
14,VQSM,< -0.25
15,DPPSTPLSHSLTP,< -0.25
16,AEVDRSR,< -0.25
17,SKFFAKEIVRTGSGDEMTTR,< -0.25
18,SIPGFQALEIFSSWAERII,< -0.25
19,GRGVMFKARGC,< -0.25
20,REAFHEEPSVLRFIPPDVHD,< -0.25
21,VGFRISFRGPRLPIAKRGR,< -0.25
22,VLKSVSLSSYCGVPPWNTGG,< -0.25
23,AFPAFRMANMVFRFQINIPD,< -0.25
24,PEGLIRLRFSEGASRTQPTC,< -0.25

row,Substance,growth estimate
1,CCR,< -0.25
2,DQWACWAP,< -0.25
3,VRKL,< -0.25
4,SLTCLKSTLQPLDSAHQFGS,< -0.25
5,LRSKDKVVTGLVAIPLALGR,< -0.25
6,ENRACRHPTPCHALSIINVP,< -0.25
7,NHVHRCGSICIG,< -0.25
8,TPAGSSPPRFCLLIP,< -0.25
9,KQAS,< -0.25
10,ARQVT,< -0.25
11,AIDV,< -0.25
12,FRRVSITVRFGWSRR,< -0.25
13,YHTPG,< -0.25
14,GFRTVNGRLDCSEGA,< -0.25
15,IFVANWQVVLFARVSGIHAL,< -0.25
16,RRSVANFLSHEN,< -0.25
17,SYARAGSIVRVGWGPGSGRG,< -0.25
18,VVHCVSDLLAYCRVASCRHT,< -0.25
19,ASSMGSGQVYFRLGKLG,< -0.25
20,RGSARSQPLCLSSYAVTWRG,< -0.25
21,AAHLGGNSRSPVWT,< -0.25
22,KIGFKVSHACTGGHLTPSV,< -0.25
23,SSVSELRTGWNIRVTANTQT,< -0.25
24,GSTVQRGPSRRLSHNPTHFR,< -0.25

# Nothing new here: an excerpt of the list.
row,Substance,growth estimate
3,NFAIAHS,< -0.25
4,VVLYKRTFWSPPLAGLNSGT,< -0.25
5,KAVSDPNMALTVVMPSYGR,< -0.25
6,DLILLQISNLYR,< -0.25
7,AYSDVPFRRHQFSIRSYGCK,< -0.25
8,SPLRENELTKRMRLPQFWVF,< -0.25
9,RFWQMCHS,< -0.25
10,ISIHVESRCDRILSQAIFTS,< -0.25
11,LTIEL,< -0.25
12,NGRRESPLKDLGKVAKDQSV,< -0.25
13,FGGKAAWEVSDVTSTLECLL,< -0.25
14,VQSM,< -0.25
15,DPPSTPLSHSLTP,< -0.25
16,AEVDRSR,< -0.25
17,SKFFAKEIVRTGSGDEMTTR,< -0.25
18,SIPGFQALEIFSSWAERII,< -0.25
19,GRGVMFKARGC,< -0.25
20,REAFHEEPSVLRFIPPDVHD,< -0.25
21,VGFRISFRGPRLPIAKRGR,< -0.25
22,VLKSVSLSSYCGVPPWNTGG,< -0.25
23,AFPAFRMANMVFRFQINIPD,< -0.25
24,PEGLIRLRFSEGASRTQPTC,< -0.25
1,CCR,< -0.25
2,DQWACWAP,< -0.25
3,VRKL,< -0.25
4,SLTCLKSTLQPLDSAHQFGS,< -0.25
5,LRSKDKVVTGLVAIPLALGR,< -0.25

# Additional records:

row,Substance,growth estimate
1,LDRSALRHGSTKH,< -0.25
2,RKVAIMLERRIFNAIRECAS,< -0.25
3,LNCRLGPEWKECSW,< -0.25
4,KKAGMHRGRSAG,< -0.25
5,FLYWSDRGLVGSRQLWQYNS,-0.241
6,GTRKRRCRG,< -0.25
7,CVMDRSATVSDASFS,< -0.25
8,ECCERVCGVHIPDAKVSKSH,< -0.25
9,DKQIQAGCPSDH,< -0.25
10,TEGSWHQVRIPVSTVDVQVG,< -0.25
11,RQDTTRLKPCPLEGYSFIVS,< -0.25
12,GPVSLENWVRRCDAIS,< -0.25
13,LWRAQVFSILEFEDYALTFT,< -0.25
14,PEKRGEERPHRRHLSPARYQ,< -0.25
15,LTGFGRSTSGRRKWDI,< -0.25
16,MLRRGL,< -0.25
17,KWSRVILPTRSGEYGAVTLP,< -0.25
18,QESTGKVRLGCWGSEEKRTT,< -0.25
19,SCFTISSNSGDTRLVCRGVG,< -0.25
20,PSKLSVSLPVAAARTTPARK,< -0.25
21,ELGAPTLFMVCVRRVARCFD,< -0.25
22,TYSVYIQGS,< -0.25
23,IDVKLGVIRVREARFCPRMS,< -0.25
24,KPLIWWFTVLPNKWIRCFLS,< -0.25

row,Substance,growth estimate
1,NMQRLGIAPYRSTPVTQR,< -0.25
2,LKGQRFHTYGSWVIGYSAVV,< -0.25
3,HCG,< -0.25
4,RVGLQSLPMVMGLLSAFQLS,< -0.25
5,LLRVLTGAAGIKRFAKQRH,< -0.25
6,DVAMYFNLLGCSRHSEMIDD,< -0.25
7,VYGLCELREQFVKDTRRAFL,< -0.25
8,TAILPK,< -0.25
9,ILAGP,< -0.25
10,ACFEGSGKCPCHGALGLHAA,< -0.25
11,RQGKTAFQVQSDCTSTVSRV,< -0.25
12,QQRGTTSKP,-0.231
13,QRPRVHTRDTLLINSQDWSL,< -0.25
14,RAGLTNSR,< -0.25
15,NIALSYFSPDEYSPKCSLCA,< -0.25
16,AFLC,< -0.25
17,PGTS,< -0.25
18,RGVS,< -0.25
19,FGCHSNVYIVVDAVASDVGR,< -0.25
20,IILNALECIL,< -0.25
21,HDTAP,< -0.25
22,DMLSTSSHDAPVGFRNQVNV,< -0.25
23,NDSGGKIMVEIIRYSARFEH,< -0.25
24,CVVLIAFQINPLGVVFVLPA,< -0.25

row,Substance,growth estimate
1,NAWVAVLRVLRPA,< -0.25
2,ADGEQYISDVSITIAACYRC,< -0.25
3,YRLAQCNAMRG,< -0.25
4,AEGWTIAL,< -0.25
5,VPKRLRSATYRTLVLRLERC,< -0.25
6,DSASGSSGISNGALRSLLYW,< -0.25
7,HITSHAVRLRR,< -0.25
8,IQSTSCRVRWLSQASCERIL,< -0.25
9,SIWKSAKIQI,< -0.25
10,CCCVGATRQVRPIHRELRAM,< -0.25
11,PESVINIDGTGEKFI,< -0.25
12,YVYLTNTPMEDGRIYGYRLQ,< -0.25
13,GLGGSLRMRSEGQNTPGYNL,< -0.25
14,SSAEL,< -0.25
15,PSWGV,< -0.25
16,THPGRSFRGFNYALPAGLR,< -0.25
17,RRASPAVLRSRCALDSRPYA,< -0.25
18,PVTVKRALCRIAPCSVLSRD,< -0.25
19,CHPENVIFDHSLQYSASLSS,< -0.25
20,IPGSSFQVIFAVEPRSCHNH,< -0.25
21,LGVSPMR,< -0.25
22,NRF,-0.245
23,LRRDWEGSRSGCYSEGLSRS,< -0.25
24,TGRSPQGEGWPEKIGRGSQS,< -0.25

row,Substance,growth estimate
1,QSQSS,< -0.25
2,SKAYISNLNRQVEGRGNQDT,< -0.25
3,RSHMDFLRCTSPQLREMLCP,0.183
4,GTCSGRTNRPRVWVIPCARL,< -0.25
5,FYRSPGVGICPAVA,< -0.25
6,KVSMERKNGLLGVIEGNTDQ,< -0.25
7,IVGDLVPFDCNG,< -0.25
8,RRYIKGLSLSDRYGSSGPRS,-0.145
9,PCE,-0.241
10,VPIQGWAFALVRQKGQHTTP,< -0.25
11,RRYRHLATSYSCIREGRTPR,-0.246
12,TSSPKDIGYRHGPHAFCRSC,< -0.25
13,LSRPL,< -0.25
14,AKHWRLGISHAVCPAILLLV,< -0.25
15,KQAAR,< -0.25
16,VRVLRESRRSAELVASTVGG,< -0.25
17,TLHWVSRVAALKRE,< -0.25
18,SIHGVDTGLVRFRREAKKIP,-0.127
19,HEEWTGRAKSRPDLSGQNPS,< -0.25
20,AKFDCLMVIEHFGMYIDL,< -0.25
21,HVSTVGLRSSSRTGGGSAYA,< -0.25
22,KISPLARRCTVLDERIGLGP,< -0.25
